Literature values as cited in US20190022110A1, “AQUEOUS BASED CAPSAICINOID FORMULATIONS AND METHODS OF MANUFACTURE AND USE” (VIZURI HEALTH SCIENCES LLC, priority 2012, published 2019).
For some assays here: The name of at least one read-out is uncertain. For some assays here: For at least one compound, name, drawing or mass did not settle the structure.

Tests used:
[1] = for each 10 mg/ml increase in the PS 80 concentration; US 2006/0148903; cited from earlier work
[2] = tested on: capsaicin-induced edema in rabbit skin; details: Newbold et al 1995; cited from earlier work

SMILES | increase of aqueous solubility of capsaicin [1] | sensitivity of capsaicin induced edema to treatment [2]
COc1cc(CNC(=O)CCCC/C=C/C(C)C)ccc1O [Capsaicin] | about 1 mg/ml | 
C[C@@H]1C[C@H]2[C@@H]3CCC4=CC(=O)C=C[C@]4(C)[C@@]3(F)[C@@H](O)C[C@]2(C)[C@@]1(O)C(=O)CO [dexamethasone] |  | insensitive
